One molecule from article PMC12766925, “Functional assembly of the Qc-SNARE with Sec18 and Sec17 on membranes” (Molecular Biology of the Cell, 2025) can be followed below.

No constants are given. Whether binding was seen depends on the method and setting. A result given as binding can be weak or reduced; the word gives no strength.

In the test the target is the three soluble Q-SNAREs (yeast (Saccharomyces Genome Database ids)). The test is described as follows: liposome floatation (density gradient) with immunoblot; protein-free VML liposomes, 2 µM Sec17 and 2 µM soluble SNAREs as indicated, Rb150, 0.04% defatted BSA, 1 mM MgCl2, 27°C 1 h; floated through Histodenz; Sec17 on liposomes by Western blot; both purified.

B1: Sec17 (natural protein, UniProt P32602 1-292, looked up)
chain: MSDPVELLKRAEKKGVPSSGFMKLFSGSDSYKFEEAADLCVQAATIYRLRKELNLAGDSFLKAADYQKKAGNEDEAGNTYVEAYKCFKSGGNSVNAVDSLENAIQIFTHRGQFRRGANFKFELGEILENDLHDYAKAIDCYELAGEWYAQDQSVALSNKCFIKCADLKALDGQYIEASDIYSKLIKSSMGNRLSQWSLKDYFLKKGLCQLAATDAVAAARTLQEGQSEDPNFADSRESNFLKSLIDAVNEGDSEQLSEHCKEFDNFMRLDKWKITILNKIKESIQQQEDDLL
notes: Sec17, yeast, YBL050W; Plasmid from Schwartz and Merz, 2009; also called Sec17/SNAP; wild-type Sec17; source: E. coli Rosetta2(DE3), purified (chitin resin, DTT cleavage, dialysed into Rb150)
Regarding B1, the binding result is “binds”.
